This assay has as its target T1, STRN (human (endogenous in MCF-7)) (UniProt O43815).
T1 sequence: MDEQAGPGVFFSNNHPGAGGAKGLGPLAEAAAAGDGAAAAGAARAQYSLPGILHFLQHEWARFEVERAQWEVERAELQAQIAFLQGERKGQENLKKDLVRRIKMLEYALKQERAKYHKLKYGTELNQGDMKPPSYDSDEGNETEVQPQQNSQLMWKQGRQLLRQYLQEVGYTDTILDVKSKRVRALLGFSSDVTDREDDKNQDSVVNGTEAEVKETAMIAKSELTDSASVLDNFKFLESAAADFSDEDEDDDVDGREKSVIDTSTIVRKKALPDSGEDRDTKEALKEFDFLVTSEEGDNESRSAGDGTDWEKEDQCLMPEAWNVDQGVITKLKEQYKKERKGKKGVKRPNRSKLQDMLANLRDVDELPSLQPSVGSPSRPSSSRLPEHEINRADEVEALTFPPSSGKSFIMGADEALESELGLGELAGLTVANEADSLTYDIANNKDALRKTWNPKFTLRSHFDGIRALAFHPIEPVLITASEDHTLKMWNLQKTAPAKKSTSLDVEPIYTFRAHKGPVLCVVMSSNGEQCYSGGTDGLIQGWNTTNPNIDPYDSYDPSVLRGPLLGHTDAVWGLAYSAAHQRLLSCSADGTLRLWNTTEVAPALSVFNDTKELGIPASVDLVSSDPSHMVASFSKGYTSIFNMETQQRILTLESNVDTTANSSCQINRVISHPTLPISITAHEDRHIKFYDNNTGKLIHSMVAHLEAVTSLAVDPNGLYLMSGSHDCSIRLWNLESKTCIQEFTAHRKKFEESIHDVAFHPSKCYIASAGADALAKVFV
Kind of assay: co-IP; endogenous STRN immunoprecipitated from pre-cleared MCF-7 lysate with Striatin antibody (overnight) and Protein-A beads; rabbit IgG as negative control; Western blot for CTTNBP2NL; buffer Hepes 50 mM pH 7.4, NaCl 150 mM, EDTA 1 mM, Tween-20 0.1%, glycerol 10%. Background: A western blot detects proteins with antibodies after separation by electrophoresis.

These are yes or no findings as the source states them, for the method shown. In cells and extracts the contact can be indirect. Some entries that bind do so weakly or less than the wild type.

B1: CTTNBP2NL (protein, UniProt Q9P2B4 1-639)
chain: MNLEKLSKPELLTLFSILEGELEARDLVIEALKAQHRDTFIEERYGKYNISDPLMALQRDFETLKEKNDGEKQPVCTNPLSILKVVMKQCKNMQERMLSQLAAAESRHRKVILDLEEERQRHAQDTAEGDDVTYMLEKERERLTQQLEFEKSQVKKFEKEQKKLSSQLEEERSRHKQLSSMLVLECKKATNKAAEEGQKAGELSLKLEKEKSRVSKLEEELAAERKRGLQTEAQVEKQLSEFDIEREQLRAKLNREENRTKTLKEEMESLKKIVKDLEASHQHSSPNEQLKKPVTVSKGTATEPLMLMSVFCQTESFPAERTHGSNIAKMTNTGLPGPATPAYSYAKTNGHCDPEIQTTRELTAGNNVENQVPPREKSVALAQEKPVENGGCPVGIETPVPMPSPLSSSGSSLSPSSTASSSLTSSPCSSPVLTKRLLGSSASSPGYQSSYQVGINQRFHAARHKFQSQADQDQQASGLQSPPSRDLSPTLIDNSAAKQLARNTVTQVLSRFTSQQGPIKPVSPNSSPFGTDYRNLANTANPRGDTSHSPTPGKVSSPLSPLSPGIKSPTIPRAERGNPPPIPPKKPGLTPSPSATTPLTKTHSQAASLTTAEDLASSCSSNTVVANGKDVELLLPTSS
Regarding B1, the binding result is given as “binds”.
